Test results from article PMC7910834.
Results are given in words; binding and its absence hold for the method and conditions named. Some binding calls cover weakened binding; strength is not graded here.

Protein sequences, listed by entry. Tags and fused reporters are not part of them.
UniProt P61586: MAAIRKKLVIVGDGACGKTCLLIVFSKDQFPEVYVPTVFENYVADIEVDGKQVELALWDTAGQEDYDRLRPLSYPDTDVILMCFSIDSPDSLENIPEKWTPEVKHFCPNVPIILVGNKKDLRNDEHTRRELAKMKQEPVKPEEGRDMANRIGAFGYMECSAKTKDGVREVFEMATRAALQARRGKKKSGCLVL
UniProt Q13526: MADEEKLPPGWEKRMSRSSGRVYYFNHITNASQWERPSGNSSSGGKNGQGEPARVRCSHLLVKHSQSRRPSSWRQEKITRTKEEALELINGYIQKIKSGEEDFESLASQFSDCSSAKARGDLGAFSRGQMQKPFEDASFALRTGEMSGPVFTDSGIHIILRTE

Target: His6-TAT-Myc-RhoA (UniProt P61586)
Test: co-IP; purified recombinant proteins mixed in Nonidet P-40 buffer, incubated with normal IgG or anti-Myc Ab, then protein-G Sepharose beads; immunoblot with anti-Pin1 and anti-GFP; both purified

- binding: binds
Substance: His6-TAT-HA-Pin1 (recombinant full-length Pin1) (from UniProt Q13526 1-163) (enzyme)
